Experimental data: PubChem BioAssay AID493246 (Drosophila RNAi Screening Center, 2011)
Purpose: 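Identify essential fly genes by loss of cell viability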 (primary screen). System: Drosophila Kc and S2R+ cells. Knock-down reagent: long dsRNA against Drosophila genes. Measurement: 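Raw, unnormalised count of remaining cells in each well; per-plate z-scores of cell number underlie the calls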. Direction: Kc cell number and S2R+ cell number: higher = more cells remaining. Call rule: 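Active when the per-plate z-score of cell number is 3 or more in the direction of fewer cells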.
The deposit covers about 21,000 reagents; below is an unselected part of those with a known target gene and a result. Over the whole deposit, 429 (2%) are marked active. 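Values are raw and not normalised between plates; calls rest on per-plate z-scores that were not deposited.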 Unmarked entries are inactive. Names joined by + are all predicted targets of the reagent. Not stated in the record: the amount of reagent, the time to read-out.

target gene	DRSC id	Kc cell number, rep 1	Kc cell number, rep 2	S2R+ cell number, rep 1	S2R+ cell number, rep 2
CG17193	DRSC15187	1.40e6	1.38e6	1.12e6	1.17e6
RpS15	DRSC07151	9.36e5 (active)	1.03e6	7.81e5	9.54e5
fau	DRSC12816	1.48e6	1.54e6	1.08e6	1.26e6
fau	DRSC12817	1.55e6	1.59e6	1.14e6	1.34e6
fau	DRSC16943	1.67e6	1.72e6	1.31e6	1.46e6
fau	DRSC16944	1.45e6	1.53e6	1.27e6	1.31e6
fau	DRSC16945	1.33e6	1.30e6	9.91e5	1.09e6
Es2	DRSC18663	5.72e5		9.05e5	
REPTOR	DRSC14626	1.42e6	1.55e6	1.16e6	1.20e6
CG12914	DRSC06229	1.54e6	1.52e6	1.27e6	1.29e6
CG8613	DRSC07222	1.44e6	1.50e6	1.22e6	1.18e6
lark	DRSC11362	1.20e6	1.24e6	1.11e6	1.10e6
ND-30	DRSC08243	1.31e6	1.45e6	9.47e5	8.40e5
Xpc	DRSC07654	1.10e6	1.23e6	8.85e5	8.40e5
GatC + PolG2	DRSC03312	1.24e6	1.39e6	1.20e6	1.27e6
Syx5	DRSC03432	1.19e6	1.27e6	1.04e6	1.13e6
CG4661	DRSC19910	1.58e6	1.56e6	9.82e5	1.15e6
Faf2	DRSC03325	1.23e6	1.47e6	1.23e6	1.20e6
CG8630	DRSC16441	8.95e5	9.54e5	1.03e6	1.16e6
Tsp42Ei	DRSC06189	1.47e6	1.56e6	1.24e6	1.31e6
Ptpmeg	DRSC08684	1.40e6	1.46e6	1.24e6	1.33e6
e(r)	DRSC18768	5.95e5		8.60e5	
CG4962	DRSC10464	1.61e6	1.78e6	1.47e6	1.54e6
CG6044	DRSC04522	1.60e6	1.71e6	1.20e6	1.39e6
CG6321	DRSC10623	1.47e6	1.51e6	1.24e6	1.17e6
CG1307	DRSC12492	1.60e6	1.54e6	1.36e6	1.45e6
Bet5	DRSC14600	1.44e6	1.43e6	1.01e6	1.16e6
Zip71B	DRSC09686	1.31e6	1.39e6	1.26e6	1.35e6
kermit	DRSC06074	1.34e6	1.42e6	1.07e6	1.12e6
Ir56c	DRSC06544	1.47e6	1.61e6	1.20e6	1.26e6
CG15464 (retired record)	DRSC18047	1.53e6	1.62e6	1.01e6	1.22e6
Myo31DF	DRSC03376	1.20e6	9.56e5	6.69e5	6.22e5
CG3847	DRSC17444	1.04e6	1.26e6	1.10e6	1.14e6
CG3847	DRSC18327	5.36e5		8.88e5	
CG15312	DRSC18000	5.57e5		9.02e5	
Slc25A46a	DRSC20125	6.82e5		8.71e5	
Ptpa	DRSC00776	1.38e6	1.37e6	1.09e6	1.06e6
CG14490	DRSC06461	1.48e6	1.55e6	1.18e6	1.29e6
CG30395	DRSC03896	5.77e5		8.81e5	
Lnpk	DRSC07254	1.48e6	1.64e6	9.37e5	1.02e6
IA-2	DRSC00304	1.40e6	1.45e6	8.64e5	9.63e5
IA-2	DRSC00652	1.31e6	1.33e6	6.62e5	7.97e5
boil	DRSC17872	1.53e6	1.54e6	1.12e6	1.24e6
CG6034	DRSC10572	1.41e6	1.60e6	1.32e6	1.39e6
CG15531	DRSC15068	1.39e6	1.39e6	1.01e6	1.14e6
CG10073	DRSC05961	1.46e6	1.51e6	1.08e6	1.15e6
CG15012	DRSC08465	1.36e6	1.43e6	1.17e6	1.17e6
CG15564	DRSC15102	1.61e6	1.65e6	1.06e6	1.16e6
E(Pc)	DRSC05281	1.33e6	1.28e6	8.62e5	1.06e6
E(Pc)	DRSC07408	1.35e6	1.41e6	1.08e6	1.25e6
CG15880	DRSC00474	1.49e6	1.53e6	1.01e6	1.18e6
CG13658	DRSC14659	1.44e6	1.62e6	1.07e6	1.14e6
Scsalpha2	DRSC16003	1.48e6	1.59e6	1.13e6	1.15e6
CG5986	DRSC15931	1.64e6	1.75e6	1.15e6	1.20e6
Klp59C	DRSC04348	1.70e6	1.73e6	1.35e6	1.54e6
Ugt37C2	DRSC02247	1.47e6	1.64e6	1.17e6	1.35e6
CG15048 (retired record)	DRSC19624	1.63e6	1.60e6	1.20e6	1.34e6
Hayan	DRSC19989	1.57e6	1.58e6	1.07e6	1.20e6
CG2111	DRSC18205	1.64e6	1.64e6	1.03e6	1.16e6

Ordered by “S2R+ cell number, rep 1” (high to low): some entries from above.
target gene	DRSC id	Kc cell number, rep 1	Kc cell number, rep 2	S2R+ cell number, rep 1	S2R+ cell number, rep 2
CG4962	DRSC10464	1.61e6	1.78e6	1.47e6	1.54e6
CG6044	DRSC04522	1.60e6	1.71e6	1.20e6	1.39e6
e(r)	DRSC18768	5.95e5		8.60e5	
